Drawing on patent US20170349647A1, this text covers binding for one molecule.

These are yes or no findings as the source states them, for the method shown.

The test concerns the target recombinant nucleoprotein (available from ORLA) derived from influenza viruses subtype B (influenza virus type B). Description: sandwich ELISA, VHH coated, recombinant NP titrated (FIG. 4F). (In general: An ELISA detects its analyte on a solid surface through an enzyme-linked reagent.)

B1: VHH antibody consisting of the amino acid sequence represented by SEQ ID NO: 08 (VHH)
VHH: QVQLVESGGGLVQAGGSLRLSCAASRTIFNPNVMGWYRQAPGKQRELVADISLSGSTNYADSVKGRFTISRDNAKNTMYLQMNSLKPEDTAVYYCNTNAISGAPGRYWGQGTQVTVSS
In the case of B1, the binding result is “no binding”.
